# Screen size: about 330,000 compounds; about 7,700 (2.3%) were called active. The inconclusive results got no clear call from the source; some entries with a clear call stand among them for comparison. The call rests on the fitted dose curve; in most records, active means well fitted inhibition curve with a large enough effect; inconclusive means small, poorly fitted or top-dose-only effect, or effect the other way; inactive means flat fitted curve, though single readings scatter. Potencies beside an inconclusive call are fits to weak or partial responses and may not hold up. Residues, ends and D or L forms follow the SMILES beside them. *: point of attachment. Boc = CC(C)(C)OC(=O)*; OBn = c1ccc(CO*)cc1
# Assay: qHTS screen for small molecules that inhibit ELG1-dependent DNA repair in human embryonic kidney (HEK293T) cells expressing luciferase-tagged ELG1; further: nearly all actives have a fitted effect of over 55% in size
# Details: HEK293T ELG1-luciferase reporter, luminescence, 16 h, DNA damage induced by 5-fluorouridine; activity change, negative = inhibition: at 46.1 µM (top of the series)
# Outline: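 Overnight (16 hr) co-exposure of 2,000 cells/well to 5-fluorouridine and compound at 37 °C preceded detection. Luciferase was quantified via ONE-Glo luminescence; loss of signal denotes inhibition.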
# On the % scale 0 is the no-effect control and ±100 the full control effect; potency means the concentration at half of the fitted maximal effect.
Compound,"activity change, negative = inhibition",Potency
CCCc1c(CC)c(=N)c2ccccc2n1C,inactive: -4.02%,
CCCc1cc(NCCCO)n2c(nc3ccccc32)c1C#N,inactive: -19.4%,
O=C(C1CC1)N(CCc1ccccc1)Cc1nc2ccccc2c(=O)[nH]1,,"inconclusive: 20.6 µM [inhibitor, partial curve, poor fit]"
COc1ccc(CC(=O)Nc2ccc(C(N)=O)cc2)cc1,inactive: 4.86%,
Cc1cc(C(=O)OCC(=O)Nc2nc(-c3ccccc3)cs2)c(C)o1,,"inconclusive: 20.6 µM [activator, single point]"
CN(C)CCCNc1oc(/C=C/c2ccccc2)nc1C#N,,"inconclusive: 18.3 µM [activator, single point]"
CCOC(=O)c1cc2c(ccn2C)n1CC(=O)N1CCC(Cc2ccccc2)CC1,,"inconclusive: 20.6 µM [inhibitor, partial curve]"
O=C(NNc1ccccc1)C(CCO)C(=O)NNc1ccccc1,,"inconclusive: 11.6 µM [inhibitor, partial curve]"
Cc1ccc(-c2cc(-c3ccccc3)nc(Cl)n2)cc1,,"inconclusive: 18.4 µM [activator, partial curve, poor fit]"
O=C(Nc1cc2c3c(c1)CC(=O)N3CCC2)c1ccco1,,"inconclusive: 8.2 µM [activator, single point]"
CC(O)CNc1nc(Cl)c(C#N)s1 (stereo not given),inactive: -11.6%,
O=C(NCc1cccnc1)c1ccc(COc2ccc3c(c2)CCC3)o1,,"inconclusive: 0.731 µM [activator, single point]"
CN1CCN(c2ccc(NC(=O)N3CCc4ccccc43)cc2)CC1,,"inconclusive: 0.92 µM [activator, partial curve]"
NC(=S)N/N=C/c1c(O)ccc2ccccc12,,active: 13 µM
Cc1nn(-c2ccc(F)cc2)c(N)c1C1(O)C(=O)Nc2ccccc21 (stereo not given),inactive: -6.9%,
Fc1ccc(-c2onc3ccc(C4OCCO4)cc23)cc1,inactive: -7.86%,
COc1cc(C2Nc3ccc4ncccc4c3C3=C2C(=O)CCC3)ccc1O (stereo not given),,"inconclusive: 29.1 µM [activator, single point]"
O=C(CCCc1ccccc1)NCCc1ccccc1,,"inconclusive: 16.4 µM [activator, single point]"
CSc1ncccc1C(=O)OCC(=O)Nc1cc(C(F)(F)F)ccc1N1CCOCC1,,"inconclusive: 29.1 µM [inhibitor, single point]"
CC(=O)Nc1ccc(NC(=O)C(C)OC(=O)c2cccs2)cc1 (stereo not given),inactive: 16.3%,
O=C(CN(C1CCCCC1)C1CCCCC1)N1CCc2ccccc2C1,,"inconclusive: 20.6 µM [inhibitor, single point]"
CC(=O)c1ccc(NC(=O)CN2CCCCCC2)cc1,,"inconclusive: 8.2 µM [activator, partial curve, poor fit]"
COc1cc(C(C)=O)ccc1OCC(O)CN1CCN(c2cc(C)cc(C)c2)CC1 (stereo not given),,active: 13 µM
CCSc1nnc(C)c(=O)n1COC(=O)c1ccc(S(=O)(=O)N2CCCC2)cc1,,"inconclusive: 0.058 µM [inhibitor, full curve, poor fit]"

Compound,"activity change, negative = inhibition",Potency
O=C(NCCCN1CCCC1=O)Nc1ccc([N+](=O)[O-])cc1,,"inconclusive: 20.6 µM [activator, partial curve, poor fit]"
NC(=S)N/N=C/c1coc2ccc(Br)cc2c1=O,,"inconclusive: 20.6 µM [inhibitor, partial curve, poor fit]"
Cc1ccc(S(=O)(=O)Nc2cc(=O)[nH]c(SCC(=O)Nc3cccc(C)c3)n2)cc1,,"inconclusive: 23.1 µM [inhibitor, single point]"
Cc1cc2ncn(/N=C/c3cc(Br)ccc3O)c2cc1C,inactive: 1.54%,
COC(=O)Cc1c[nH]c2cccc(OCC(O)CN(Cc3ccc([N+](=O)[O-])cc3)C(C)(C)C)c12 (stereo not given),,"inconclusive: 16.4 µM [inhibitor, single point]"
O=C(COc1ccccc1Cl)NCCNC(=O)c1cnccn1,inactive: -3%,
COc1cccc(C(=O)Nc2ccc3nc4n(c(=O)c3c2)CCCC4)c1,,"inconclusive: 11.6 µM [activator, partial curve]"
COc1cccc(N2CCN(C(=O)Cn3c(=O)oc4ccccc43)CC2)c1,inactive: -5.7%,
CCn1c(CCNC(=O)c2ccc(OC)cc2)nnc1SCc1ccc(Cl)c(Cl)c1,,"inconclusive: 25.9 µM [inhibitor, single point]"
CCC(=O)c1ccc(OCc2ccccc2)c(OC)c1,,"inconclusive: 14.6 µM [activator, partial curve]"
C=CCN1C(=O)C(CC(=O)Nc2ccc(OC)cc2)SC1=Nc1ccc(S(N)(=O)=O)cc1 (stereo not given),,"inconclusive: 14.6 µM [inhibitor, partial curve]"
CCOc1cccc(/C(O)=C2/C(=O)C(=O)N(CCN3CCOCC3)C2c2ccncc2)c1 (stereo not given),inactive: 1.63%,
CSc1nc2c(ccc3ccccc32)o1,,"inconclusive: 18.4 µM [activator, single point]"
O=C(COc1ccc(C2SCCS2)cc1)NNC(=O)C(Cl)Cl,,"inconclusive: 16.4 µM [activator, partial curve]"
NC(=O)c1ccc(N=Cc2ccc([N+](=O)[O-])s2)cc1,,"inconclusive: 29.1 µM [inhibitor, single point]"
COC(=O)[C@H]1[C@H]2C[C@@H]3c4[nH]c5cc(OC)ccc5c4CCN3C[C@H]2C[C@@H](OC(=O)c2cc(OC)c(OC)c(OC)c2)[C@@H]1OC,,active: 10 µM
O=C(/C=C/c1ccccc1F)N1CCN(c2ccccn2)CC1,,"inconclusive: 20.6 µM [activator, single point]"
CC1(C)NC(=O)N(CC(=O)OCC(=O)Nc2cccc(F)c2)C1=O,,"inconclusive: 18.4 µM [activator, single point]"
O=C(N/N=C/c1oc(O)c2ccccc12)c1ccccc1,,"inconclusive: 14.6 µM [activator, partial curve]"
COc1ccc(NC(=O)c2cc(-c3cc(Cl)ccc3O)n[nH]2)c(OC)c1,inactive: -13.4%,
CCOC(=O)N1CCC(NC(=O)CS(=O)(=O)Cc2nc(-c3ccccc3Cl)oc2C)CC1,,"inconclusive: 16.4 µM [inhibitor, partial curve]"
Cc1ccc(NC(=O)n2ncc3c(C)cccc32)c(C)c1,,"inconclusive: 4.11 µM [activator, full curve]"
O=C(NCCc1ccc(F)cc1)Nc1ccc2c(c1)OCO2,,"inconclusive: 14.6 µM [activator, partial curve]"
COc1cc(SC)ccc1C(=O)Nc1ccccn1,,"inconclusive: 2.31 µM [activator, partial curve]"

Compound,"activity change, negative = inhibition",Potency
COCCN(C(=S)Nc1ccc(C)cc1)C(C)c1ccco1 (stereo not given),inactive: 24.1%,
Cc1nn(Cc2ccc(C(=O)NC3CCCCC3)o2)c(C)c1Br,,"inconclusive: 29.1 µM [inhibitor, single point]"
Cc1cc(C)nc(-n2ncc3c2CC(c2ccccc2C)CC3=O)n1 (stereo not given),,"inconclusive: 29.1 µM [inhibitor, single point]"
COc1cc2c(cc1OC)-c1cc3ccc(OC)c(OC)c3c[n+]1CC2,inactive: -0.947%,
Cn1nc(C(=O)NCc2ccccn2)c2ccccc2c1=O,,"inconclusive: 11.6 µM [activator, partial curve, poor fit]"
COC(=O)c1ccc(N/N=C/c2cc([N+](=O)[O-])cc(OC)c2O)cc1,,"inconclusive: 20.6 µM [activator, single point]"
NC(=O)c1cc(C(=O)c2ccccc2Cl)c[nH]1,inactive: -14.3%,
CNC(=O)C(=O)Nc1cc2c3c(c1)C(C)C(=O)N3CCC2 (stereo not given),,"inconclusive: 25.9 µM [activator, partial curve]"
O=C(/C=C/c1ccco1)Nc1ccc(-c2nc3ccccc3[nH]2)cc1,,"inconclusive: 16.4 µM [activator, single point]"
CCN1C(=O)[C@@H]2[C@@H](c3ccc(-c4ccc(C(C)=O)cc4)cc3)N3CCCC[C@@]3(C(=O)OC)[C@@H]2C1=O,,"inconclusive: 31.6 µM [inhibitor, single point]"
CCC(C)NC(=O)Cn1c(=O)n(CCCCC(=O)NCc2ccco2)c(=O)c2ccccc21 (stereo not given),inactive: 0.707%,
Oc1ccc(Br)cc1C1Nc2ccccc2S1 (stereo not given),,"inconclusive: 10.3 µM [activator, partial curve]"
Cc1nc(C(F)(F)F)ccc1C(=O)N1CCCCC1,inactive: -5.74%,
c1ccc(CSc2snnc2-c2ccccc2)cc1,,"inconclusive: 11.6 µM [activator, partial curve]"
CC(C)CC(NC(=O)C(NC(=O)OC(C)(C)C)C(C)C)C(=O)NC(CCC(=O)OCc1ccccc1)C(N)=O (stereo not drawn) (Boc-Val-Leu-Glu(OBn)-NH2; configuration not given here),,"inconclusive: 4.11 µM [inhibitor, single point]"
COc1cccc2cc3c(=O)n(-c4ccccc4)nc-3oc12,,"inconclusive: 25.9 µM [activator, partial curve, poor fit]"
COC(=O)c1sccc1NC(=O)Cc1ccc(OC)c(OC)c1,inactive: -14.6%,
COc1ccccc1C(=O)NCCC(=O)NCC(c1ccc(F)cc1)N1CCOCC1 (stereo not given),inactive: 7.74%,
Cc1ccc(N2C(=O)N3[C@@H]4c5ccccc5OC[C@@H]4[C@@H](c4ccccc4)[C@@]3(C)C2=O)cc1,inactive: -0.661%,
COc1ccccc1N1CCN(C(=O)C(C)CS(=O)(=O)c2ccc3c(c2)NC(=O)CS3)CC1 (stereo not given),,"inconclusive: 16.4 µM [inhibitor, partial curve]"
Cc1nc(C)c(C(=O)Nc2nc3c(C)cccc3s2)o1,,"inconclusive: 23.1 µM [activator, single point]"
COc1cc(/C=C/C(=O)Nc2cccc(S(=O)(=O)N3CCOCC3)c2)ccc1OCC#N,,"inconclusive: 20.6 µM [inhibitor, single point]"
